No constants are given. Whether binding was seen depends on the method and setting. Binding seen in cells or lysates may run through a third protein. Some results given as binding are weak or reduced against the parent protein; the word gives no strength.

Sequences of proteins named here, by UniProt entry; tags and fusion partners are left off. Residues count along the entry.
UniProt P02751, residues 32-2477: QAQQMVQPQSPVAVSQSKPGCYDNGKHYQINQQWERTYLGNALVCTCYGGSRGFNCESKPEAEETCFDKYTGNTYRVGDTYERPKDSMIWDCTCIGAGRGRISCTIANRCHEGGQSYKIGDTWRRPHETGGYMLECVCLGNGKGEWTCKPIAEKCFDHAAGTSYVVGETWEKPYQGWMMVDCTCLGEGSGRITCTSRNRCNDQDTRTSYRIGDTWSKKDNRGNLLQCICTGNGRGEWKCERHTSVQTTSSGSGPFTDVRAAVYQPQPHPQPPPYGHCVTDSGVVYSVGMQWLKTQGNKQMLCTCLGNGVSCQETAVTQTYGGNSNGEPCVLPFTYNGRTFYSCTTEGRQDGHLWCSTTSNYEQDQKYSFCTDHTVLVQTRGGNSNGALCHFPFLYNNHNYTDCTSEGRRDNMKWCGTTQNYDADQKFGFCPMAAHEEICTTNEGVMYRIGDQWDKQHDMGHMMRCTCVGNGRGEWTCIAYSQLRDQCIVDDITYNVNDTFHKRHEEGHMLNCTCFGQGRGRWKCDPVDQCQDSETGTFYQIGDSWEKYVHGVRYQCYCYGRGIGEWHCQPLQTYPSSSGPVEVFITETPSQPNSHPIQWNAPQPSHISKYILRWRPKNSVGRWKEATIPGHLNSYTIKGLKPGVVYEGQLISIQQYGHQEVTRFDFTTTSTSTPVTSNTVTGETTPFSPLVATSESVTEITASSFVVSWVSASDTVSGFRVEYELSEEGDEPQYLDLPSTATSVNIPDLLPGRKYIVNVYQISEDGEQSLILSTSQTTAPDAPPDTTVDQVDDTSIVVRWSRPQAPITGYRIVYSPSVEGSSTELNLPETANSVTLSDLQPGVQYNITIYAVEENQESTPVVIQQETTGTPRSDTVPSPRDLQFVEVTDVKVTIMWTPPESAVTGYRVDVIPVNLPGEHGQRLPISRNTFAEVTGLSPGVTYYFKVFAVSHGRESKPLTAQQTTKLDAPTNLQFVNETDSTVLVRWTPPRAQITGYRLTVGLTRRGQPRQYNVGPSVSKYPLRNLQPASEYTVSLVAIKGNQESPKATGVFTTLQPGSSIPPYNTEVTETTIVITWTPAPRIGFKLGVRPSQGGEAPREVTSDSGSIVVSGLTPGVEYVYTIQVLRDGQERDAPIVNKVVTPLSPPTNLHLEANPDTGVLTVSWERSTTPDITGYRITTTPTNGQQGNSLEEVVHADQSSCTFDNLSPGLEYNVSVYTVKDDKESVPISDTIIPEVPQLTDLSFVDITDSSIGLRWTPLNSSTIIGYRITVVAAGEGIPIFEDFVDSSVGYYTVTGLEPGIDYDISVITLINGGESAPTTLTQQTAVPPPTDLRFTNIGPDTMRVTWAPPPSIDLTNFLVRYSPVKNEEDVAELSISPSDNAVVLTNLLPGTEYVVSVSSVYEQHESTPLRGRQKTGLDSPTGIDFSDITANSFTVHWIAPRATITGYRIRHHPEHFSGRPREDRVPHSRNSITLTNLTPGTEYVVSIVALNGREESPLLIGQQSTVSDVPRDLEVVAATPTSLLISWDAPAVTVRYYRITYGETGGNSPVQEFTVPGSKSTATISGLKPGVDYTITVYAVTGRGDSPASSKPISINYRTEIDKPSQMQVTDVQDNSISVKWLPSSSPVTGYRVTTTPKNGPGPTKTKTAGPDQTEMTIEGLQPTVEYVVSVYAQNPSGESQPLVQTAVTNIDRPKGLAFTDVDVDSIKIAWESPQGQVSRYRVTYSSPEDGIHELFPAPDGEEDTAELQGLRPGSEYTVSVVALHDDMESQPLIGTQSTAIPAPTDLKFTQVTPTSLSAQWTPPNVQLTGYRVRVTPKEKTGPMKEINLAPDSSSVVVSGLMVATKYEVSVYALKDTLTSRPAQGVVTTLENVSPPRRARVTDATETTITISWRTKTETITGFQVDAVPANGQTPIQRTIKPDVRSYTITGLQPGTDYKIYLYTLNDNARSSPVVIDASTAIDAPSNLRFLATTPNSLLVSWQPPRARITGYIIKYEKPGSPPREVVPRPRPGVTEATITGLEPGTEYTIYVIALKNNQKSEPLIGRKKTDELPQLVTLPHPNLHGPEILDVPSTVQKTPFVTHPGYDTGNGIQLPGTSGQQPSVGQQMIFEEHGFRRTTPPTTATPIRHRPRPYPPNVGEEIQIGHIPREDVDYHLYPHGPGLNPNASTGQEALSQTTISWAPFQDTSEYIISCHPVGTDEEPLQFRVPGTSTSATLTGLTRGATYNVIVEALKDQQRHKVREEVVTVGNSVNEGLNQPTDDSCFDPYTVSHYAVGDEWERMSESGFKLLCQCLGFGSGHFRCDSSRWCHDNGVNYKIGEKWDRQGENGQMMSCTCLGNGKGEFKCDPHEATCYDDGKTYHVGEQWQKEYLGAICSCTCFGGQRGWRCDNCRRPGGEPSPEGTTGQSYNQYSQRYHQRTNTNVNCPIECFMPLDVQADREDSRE
UniProt O95925, residues 22-133: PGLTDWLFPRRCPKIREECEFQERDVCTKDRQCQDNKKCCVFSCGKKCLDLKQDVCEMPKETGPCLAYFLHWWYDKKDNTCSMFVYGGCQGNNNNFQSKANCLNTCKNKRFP

One substance from paper PMC3865146 can be followed below.

In the assay the target is fibronectin (Fn) of human spermatozoa (human (endogenous in spermatozoa)) (UniProt P02751). The experiment in a line: co-IP; 500 µg spermatozoa lysate in RIPA buffer, mouse Fn antibody and protein A/G Plus-agarose beads at 4°C, blot with rabbit Eppin antibody.

Turning to “Eppin of human spermatozoa (from UniProt O95925 22-133)”, the binding result was “binds”.
